The whole screen tested about 360,000 compounds, of which about 780 (0.22%) were called active. The shares of active, inactive and inconclusive entries below differ from those in the screen. No stated cut-off is given here; in the data, active means inhibition above about 35% (passing the limit was not always enough); inconclusive means no clear call, values can overlap the other calls.
Test system: Botulinum neurotoxin type F light chain protease (Clostridium botulinum)
Test: BoNT/F light chain protease inhibitors, primary screen, biochemical, flow cytometry, MLPCN library (AID 588497); further: plate controls were buffer without enzyme for full effect and enzyme alone for no effect
Settings: Multiplex microsphere protease cleavage assay, at 10 µM, stronger effect = higher value

**Q.** For `CC1CCCCC12NC(=O)N(CC(=O)N1CCN(C(=O)c3cccs3)CC1)C2=O` (configuration not stated), which inhibition is on record?
**A.** inconclusive: 1.8%

**Q.** `O=[N+]([O-])c1cccc(-c2ccc(CN3CCCCC3)o2)c1` was tested. Which inhibition did it give?
**A.** inconclusive: -4.3%

**Q.** How did the inhibition turn out when `CC1CC(C)(C)OC(C[N+]2(C)CCCCC2)O1` (configuration not stated) was run?
**A.** inconclusive: 0.4%

**Q.** How did the inhibition turn out when `CNC(=S)N/N=C/c1c(C)cccc1Cl` was run?
**A.** inconclusive: -12%

**Q.** How did the inhibition turn out when `O=C1NCCC/C1=N\Nc1ccc(Br)cc1` was run?
**A.** inconclusive: 58.9%

**Q.** Which inhibition does the source give for `Cn1c(SCC(=O)NCCc2ccc(S(N)(=O)=O)cc2)nc2ccccc2c1=O` here?
**A.** inactive: -0.6%

**Q.** For `COc1cc(C(=O)N2CCC2(C)C(=O)O)cc(OC)c1OC` (configuration not stated), which inhibition is on record?
**A.** inactive: 8.6%

**Q.** Which inhibition does the source give for `CCOC(=O)C1CCCN(C(=O)c2cncc(Br)c2)C1` (configuration not stated) here?
**A.** inconclusive: -11.1%

**Q.** Which inhibition does the source give for `Cc1cccc(N2CCN(Cc3ccc([N+](=O)[O-])o3)CC2)c1C` here?
**A.** inconclusive: -15.6%

**Q.** How did the inhibition turn out when `Cc1ccc(NC(=O)c2ncn(CCCNCC3CCCO3)n2)cc1C` (configuration not stated) was run?
**A.** inactive: -9.5%

**Q.** For `O=C1CNC(=S)N1CCc1ccc(Cl)cc1`, which inhibition is on record?
**A.** inconclusive: -10.5%

**Q.** Which inhibition does the source give for `COc1ccc(CN(C#N)c2nc(C)cc(C)n2)cc1` here?
**A.** inconclusive: 24.7%

**Q.** How did the inhibition turn out when `Cc1ccc(SCCNC(=O)/C=C/c2ccc([N+](=O)[O-])cc2)cc1` was run?
**A.** inactive: -1.3%

**Q.** `O=C(CN1C(=O)c2cccc3cccc1c23)N1CCc2ccccc2C1` was tested. Which inhibition did it give?
**A.** inactive: -11.9%

**Q.** `CS(=O)(=O)N1CCN(CC(=O)NC2CCCC2)CC1` was tested. Which inhibition did it give?
**A.** inconclusive: -3.7%

**Q.** For `CC1(C)OC(=O)C(=CNc2cccc(C(=O)O)c2)C(=O)O1`, which inhibition is on record?
**A.** inactive: -24.1%

**Q.** How did the inhibition turn out when `N#CCCn1cc(C=O)c(-c2cccs2)n1` was run?
**A.** inactive: -2.4%

**Q.** With `c1csc(-c2noc(CN3CCOCC3)n2)c1` as the compound, how does the inhibition read?
**A.** inconclusive: -67.2%

**Q.** For `COc1cccc(N(CC(=O)N2CCOCC2)S(C)(=O)=O)c1`, which inhibition is on record?
**A.** inconclusive: -9.5%

**Q.** For `O=C(Nc1cccn2ncnc12)C(Cl)Cl`, which inhibition is on record?
**A.** inconclusive: -22.7%

**Q.** With `CC1CCN(CCC(=O)Nc2ccc(F)c(F)c2)CC1` as the compound, how does the inhibition read?
**A.** inconclusive: 0.8%

**Q.** How did the inhibition turn out when `O=[N+]([O-])c1cccnc1N1CCN(Cc2ccc3c(c2)OCO3)CC1` was run?
**A.** inconclusive: -8.5%

**Q.** For `CC(=NCCN1CCCCC1)c1c(O)n(-c2ccccc2)c(=O)[nH]c1=O`, which inhibition is on record?
**A.** inconclusive: -9.3%

**Q.** `CCOc1ccc(N(CCC#N)S(=O)(=O)c2ccc(OC)cc2)cc1` was tested. Which inhibition did it give?
**A.** inactive: 5.4%

**Q.** For `COc1ccc(CCNS(=O)(=O)c2cccc([N+](=O)[O-])c2)cc1`, which inhibition is on record?
**A.** inconclusive: -2.7%

**Q.** How did the inhibition turn out when `S=c1nc(-c2ccc(Cl)cc2)[nH][nH]1` was run?
**A.** inconclusive: 1.8%

**Q.** How did the inhibition turn out when `CC(=O)c1ccc(OCC(=O)N2CCN(S(=O)(=O)c3ccc(Br)s3)CC2)cc1` was run?
**A.** inconclusive: 0.7%

From PubChem BioAssay AID588497 (NMMLSC, 2011)
